Laboratory results reported in patent US12171744B2, “Pharmaceutical combinations for the treatment of cancer” (Presage Biosciences, Inc., priority 2016, dated 2024).
At least one compound was matched to its structure with a doubt left.

Legend:
RIVA cells = test: CIVO microinjection, CC3 expression; parameters: species or system mice; conditions: mouse, in vivo
Method: (§1) Mice were enrolled into CIVO drug studies when the tumor volume reached approximately 1000 mm^3. Microinjection studies were performed using the CIVO device as previously described (Klinghoffer et al, Science Translational Medicine 2015) The device was configured with 6 injection needles set for a 6 mm injection length and a total volume delivery of 3 μl. A fluorescent tracking marker (FTM) was added to each drug reservoir in vehicle for delivery along with each drug or drug combination. All micro-doses were equivalent to or lower than what would be allowed under FDA guidelines for Exploratory IND (Investigational New Drug) studies and by solubility of drug into vehicle. Total amounts of agents injected are tabulated below in Table 4.

Toledo cells = test: CIVO microinjection, CC3 expression; parameters: species or system mice; conditions: mouse, in vivo
Method: as §1

NUDHL/Dox1000 cells = test: CIVO microinjection, CC3 expression; parameters: species or system mice; conditions: mouse, in vivo
Method: (§2) Cell lines shown in Table 1, adherent or suspension, were treated in 6-well dishes or T10 flasks respectively, seeded at one million per ml density prior to treatment in total volumes of 3-10 ml. All agents used for in vitro cell treatments were formulated in water/DMSO to achieve required concentrations (as stated in respective figure labels/legends) with DMSO concentrations not exceeding 0.01%. Drug sources are indicated in table under ‘CIVO microinjection studies’. Cells were harvested at experimental time points: 2, 6, or 24 hours post treatment as indicated in respective figures, first by washing cells twice in ice-cold PBS in 15 ml falcon tubes, centrifugation at 1000 rpm for 5 mins followed by lysis of the respective cell pellets as described in section below. Note: Drug resistant NUDHL1 Dox 1000 nM and Toledo Dox 1000 nM cell lines were generated at Presage by culturing parental lines in media with stepwise increments in Doxorubicin concentration over several passages. These cells were used to generate xenografts when resistance to 1 uM Dox was achieved.
(§3) Mice were enrolled into CIVO drug studies when the tumor volume reached approximately 1000 mm^3. […]

Toledo/Dox1000 cells = test: CIVO microinjection, CC3 expression; parameters: species or system mice; conditions: mouse, in vivo
Method: as §2, §3

[1] = tested on: Ramos Burkitt's lymphoma cells; test: CIVO microinjection, cleaved caspase-3 staining; type: in vivo, mice; conditions: marker of apoptosis
Method: as §1
FIGS. 5A-5D show Ramos Burkitt's lymphoma cells stained for cleaved caspase-3 (CC3) (shown in red) as a marker of apoptosis.

SU-DHL-4 model of DLBCL = test: Western blot of treated cells; type: cell-based; conditions: 0.15 uM voruciclib, 20 nM venetoclax; 24 h
Method: as §2, with “These cells were used to generate xenografts when resistance to 1 uM Dox was achieved.” left out
(§4) Protein lysates were prepared by adding ice-cold 1×RIPA Buffer (from 10×, Millipore) with 1×-3× Halt protease and phosphatase inhibitor cocktail (100×, Pierce) to cell pellets, followed by pulse sonication (˜3-5 secs) three times. […] Protein samples were quantified using Bradford assay (Biorad) at 1:10 or higher dilutions using appropriate blank controls with 1×RIPA. […]

OCI Ly10 model of DLBCL = test: Western blot of treated cells; type: cell-based; conditions: 5 uM voruciclib, 50 nM venetoclax; 24 h
Method: as §2, with “These cells were used to generate xenografts when resistance to 1 uM Dox was achieved.” left out
as §4

[2] = tested on: RIVA (activated B-cell, or ABC) model of DLBCL; test: Xenograft tumor growth; type: in vivo, NOD SCID mice; conditions: Voruciclib 200 mpk, Venetoclax 1 mpk
Method: (§5) Immune deficient NOD SCID mice were implanted with the RIVA (activated B-cell, or ABC) model of DLBCL. The xenografted tumors were allowed to grow in the NOD SCID host until they reached 200 mm^3, at which point the xenografted animals were randomized into 4 study groups: 1. Vehicle control; 2. […] Venetoclax at 1 mpk; and 4. […] Venetoclax was dosed by oral gavage on days 1 and 4 of each weekly cycle. Drug effects were assessed via tumor volume measurements twice weekly by a technician blinded to the treatment of each subject in the study. N=5-6 animals per treatment arm.

NUDHL1 model of DLBCL = test: Xenograft tumor growth; type: in vivo, NOD SCID mice; conditions: Voruciclib 200 mpk, Venetoclax 50 mpk
Method: as §5, with “the NUDHL1” for “the RIVA (activated B-cell, or ABC)”, “at 50” for “at 1”

SUDHL4 model of DLBCL = test: Xenograft tumor growth and Western blot of tumors; type: in vivo, NOD SCID mice
Method: Protein lysates were prepared by adding ice-cold 1×RIPA Buffer (from 10×, Millipore) with 1×-3× Halt protease and phosphatase inhibitor cocktail (100×, Pierce) to cell pellets, followed by pulse sonication (˜3-5 secs) three times. Lysates were cleared by centrifugation at 14K rpm for 15-20 mins and the supernatant (lysate) was collected for further analysis. To prepare lysates from cryopreserved xenograft tumor tissue, tissue was first homogenized using a hand-held tissue homogenizer (Cole Palmer) in above lysis buffer followed by pulse sonication and centrifugation as described above. Above steps were carried out under ice cold conditions. Protein samples were quantified using Bradford assay (Biorad) at 1:10 or higher dilutions using appropriate blank controls with 1×RIPA. […]
Immune deficient NOD SCID mice were implanted with the SUDHL4 model of DLBCL. […] Drug effects were assessed via tumor volume measurements twice weekly by a technician blinded to the treatment of each subject in the study. […]

MV-4-11 = test: Western blot of treated AML cells; type: cell-based; conditions: voruciclib 1.5 micromolar, venetoclax 100 nM; 24 h
Method: as §2
(§6) Protein lysates were prepared by adding ice-cold 1×RIPA Buffer (from 10×, Millipore) with 1×-3× Halt protease and phosphatase inhibitor cocktail (100×, Pierce) to cell pellets, followed by pulse sonication (˜3-5 secs) three times. Lysates were cleared by centrifugation at 14K rpm for 15-20 mins and the supernatant (lysate) was collected for further analysis. To prepare lysates from cryopreserved xenograft tumor tissue, tissue was first homogenized using a hand-held tissue homogenizer (Cole Palmer) in above lysis buffer followed by pulse sonication and centrifugation as described above. Above steps were carried out under ice cold conditions. Protein samples were quantified using Bradford assay (Biorad) at 1:10 or higher dilutions using appropriate blank controls with 1×RIPA. 20-25 micrograms of protein from each sample were subject to SDS-PAGE using BOLT 4-12% Bis-Tris gels (Thermofisher) and transferred to either 0.45 or 0.2 micron pore size membranes (as applicable based on protein molecular size), and either nitrocellulose (NC) or pvdf (Thermofisher) using manufacturer's protocol, blocked for one hour in 5% milk at room temperature, probed with primary antibodies (Table 2) at 4 deg C. overnight and corresponding HRP-conjugated secondary antibodies (Jackson Immunoresearch, 1:10,000-1:20,000 dilutions) for 1 hour at room temperature. Three PBS/0.01% Tween-20 washes (5-10 mins each) were carried out after each antibody incubation. ECL chemiluminescent substrate (Pierce or GE) and autoradiographic film (Thermofisher) was used for detection of protein signals.
(§7) At the given time points, cells were lysed and subjected to western blot analysis with antibodies that specifically recognize phosphorylated RNA pol II (pSer2), MCL-1, cleaved PARP, and Beta-actin. […] Cleaved PARP (cPARP) may be used as a biomarker of apoptosis.
(§8) At the given time points, cells were lysed and subjected to western blot analysis with antibodies that specifically recognize phosphorylated RNA pol II (pSer2), MCL-1, cleaved PARP, and Beta-actin. […] Venetoclax is observed to induce MCL-1 upregulation in all three cell lines.

OCI-AML-3 = test: Western blot of treated AML cells; type: cell-based; conditions: voruciclib 1.5 micromolar, venetoclax 100 nM; 24 h
Method: as §2, §6, §7, §8

SKM-1 = test: Western blot of treated AML cells; type: cell-based; conditions: voruciclib 1.5 micromolar, venetoclax 100 nM; 24 h
Method: as §2, §6, §7, §8

[3] = tested on: HCC1187 triple negative breast cancer (TNBC) xenograft mouse models; test: Systemic drug efficacy, tumor volume; type: in vivo; conditions: palbociclib 120 mg/kg, bortezomib 0.42 mg/kg

SMILES	CC3 expression (RIVA cells)	CC3 expression (Toledo cells)	CC3 expression (NUDHL/Dox1000 cells)	CC3 expression (Toledo/Dox1000 cells)	expression of CC3 [1]	MCL-1 expression (SU-DHL-4 model of DLBCL)	apoptosis (cleaved PARP) (SU-DHL-4 model of DLBCL)	apoptosis (cleaved PARP) (OCI Ly10 model of DLBCL)	tumor size (images) [2]	average tumor volume ([2]; oral gavage)	tumor size (images) (NUDHL1 model of DLBCL)	normalized tumor volume (SUDHL4 model of DLBCL; Voruciclib 200 mpk, Venetoclax 25 mpk, oral gavage 6 days of the week)	p53 (SUDHL4 model of DLBCL; Western blot of tumors, Day 26, 4 hours post treatment)	MCL-1 (MV-4-11)	apoptosis (PARP) (MV-4-11)	MCL-1 (OCI-AML-3)	apoptosis (PARP) (OCI-AML-3)	MCL-1 (SKM-1)	apoptosis (PARP) (SKM-1)	synergistic effect on tumor volume in combination with bortezomib [3]
CC1(C)CCC(CN2CCN(c3ccc(C(=O)NS(=O)(=O)c4ccc(NCC5CCOCC5)c([N+](=O)[O-])c4)c(Oc4cnc5[nH]ccc5c4)c3)CC2)=C(c2ccc(Cl)cc2)C1 [venetoclax, reference compound]	slight effect	slight effect	slight effect	slight effect	slight increase	induces	neither compound induces apoptosis as a single agent	neither compound significantly induces apoptosis as a single agent	smaller than vehicle	decrease in tumor volume	smaller than vehicle	increase in tumor volume	abrogated	upregulation	neither agent alone induces apoptosis	upregulation	neither agent alone induces apoptosis	upregulation	neither agent alone induces apoptosis	–
CC(=O)c1c(C)c2cnc(Nc3ccc(N4CCNCC4)cn3)nc2n(C2CCCC2)c1=O [palbociclib]	–	–	–	–	–	–	–	–	–	–	–	–	–	–	–	–	–	–	–	did not exhibit a synergistic effect
